Data published in paper PMC5393633.
The exact form of at least one protein or probe is not confirmed. At least one result comes from cells or an extract, where the contact may be indirect. A negative result means that nothing was seen under these conditions. Protein sequences can lack the tags named with them.

Tests used:
Odd-paired (Opa) [1] = molecular target: T1, Odd-paired (Opa) (UniProt P39768); assay: EMSA; conditions: poly(dI-dC), EMSA: 10 mM Tris-HCl pH 8.0, 25 mM KCl, 1 mM DTT, 1 ug poly-dIdC, 2.5% glycerol, 0.05% Triton X-100, 0.2 mM MgCl2, 20 min room temperature, 6% native TBE-PAGE, protein in a lysate after overexpression, protein details: C-terminal OLLAS and 6xHis
T1 sequence (looked up, limits assumed): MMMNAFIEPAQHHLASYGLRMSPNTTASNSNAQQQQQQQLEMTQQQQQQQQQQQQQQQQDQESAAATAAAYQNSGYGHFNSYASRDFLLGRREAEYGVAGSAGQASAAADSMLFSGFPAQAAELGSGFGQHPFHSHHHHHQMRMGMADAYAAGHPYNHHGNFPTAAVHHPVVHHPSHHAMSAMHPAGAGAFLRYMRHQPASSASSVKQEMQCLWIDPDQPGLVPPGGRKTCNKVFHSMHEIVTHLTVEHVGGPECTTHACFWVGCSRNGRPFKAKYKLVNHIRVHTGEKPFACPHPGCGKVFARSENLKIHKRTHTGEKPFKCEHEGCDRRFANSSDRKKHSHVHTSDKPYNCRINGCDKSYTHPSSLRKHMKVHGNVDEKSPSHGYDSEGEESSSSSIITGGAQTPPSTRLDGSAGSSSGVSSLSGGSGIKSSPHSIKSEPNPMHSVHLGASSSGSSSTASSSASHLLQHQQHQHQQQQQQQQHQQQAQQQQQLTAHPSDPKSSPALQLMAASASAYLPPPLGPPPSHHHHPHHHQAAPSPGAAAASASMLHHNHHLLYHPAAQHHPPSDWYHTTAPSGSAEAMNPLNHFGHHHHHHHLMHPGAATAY

Odd-paired (Opa) [2] = molecular target: T1, Odd-paired (Opa); assay: competition with a labelled probe; conditions: 100x unlabeled mutant vs labeled wild-type probe; EMSA: 10 mM Tris-HCl pH 8.0, 25 mM KCl, 1 mM DTT, 1 ug poly-dIdC, 2.5% glycerol, 0.05% Triton X-100, 0.2 mM MgCl2, 20 min room temperature; 6% native TBE-PAGE; protein in a lysate after overexpression; protein details: C-terminal OLLAS and 6xHis; label: 3'-end biotin (unlabeled as competitor)
[3] = reversed by 100x unlabeled probe, label: 3'-end biotin
[4] = labeled mutant probe, label: 3'-end biotin (unlabeled as competitor)

Question: Does “GTGCAGCCTTTAGTCTGACCCCTGACCTCCGGCTGGCCTACCTGCTGTTG (double strand) [Opa_JASPAR]” bind (Odd-paired (Opa) [1]; [3])?
Answer: Result: binds

Question: Does “GTGCAGCCTTTAGTCTGACCCCTGTCCTCTGGCTGGCCTACCTGCTGTTG (double strand) [Opa_JASPAR mutant]” bind (Odd-paired (Opa) [1]; [4])?
Answer: Result: no binding

Question: Does “GTGCAGCCTTTAGTCTGACCCCTGTCCTCTGGCTGGCCTACCTGCTGTTG (double strand) [Opa_JASPAR mutant]” bind (Odd-paired (Opa) [2])?
Answer: Result: no binding

Question: Does “TGACTTGTGCGTTTCACCAATCGCCGCAGGGAAGTGGCGTCACGGCCTGG (double strand) [Opa_SELEX mutant]” bind (Odd-paired (Opa) [1]; [4])?
Answer: Result: no binding

Question: Does “TGACTTGTGCGTTTCACCAATCGCCGCAGGGAAGTGGCGTCACGGCCTGG (double strand) [Opa_SELEX mutant]” bind (Odd-paired (Opa) [2])?
Answer: Result: no binding

Question: Does “TGACTTGTGCGTTTCACCAATCGCCGCGGGGATGTGGCGTCACGGCCTGG (double strand) [Opa_SELEX]” bind (Odd-paired (Opa) [1]; [3])?
Answer: Result: binds
